Laboratory results taken from PMC7134542.
No constants are given. Whether binding was seen depends on the method and setting. Binding can be weak; no strength is given.

Target: Ctenopharyngodon idella c-Jun NH2-terminal kinase (CiJNK) (Ctenopharyngodon idella (grass carp))
Assay: two-hybrid; mammalian two-hybrid in HEK293T cells; pBIND fusion and pACT fusion co-transfected with pG5-Luc; Firefly and Renilla luciferase measured 48 h after transfection

Binder	binding
Ctenopharyngodon idella MAPK kinase 4 (CiMKK4) (enzyme, UniProt A0A3G2LZD3 1-403) MATSSSSSNPSAAAASSLSSSSAQQHPTQSQQHISSTMSSMQGKRKALKLNFANPPIKPTSRITLNTAGLPFQNPHMERLRTHSIESSGKLKISPEQHWDFTAEDLKDLGEIGRGAYGSVNKMMHKPSEQIMAVKRIRSTVDEREQKQLLMDLDVVMRSSDCPYIVQFYGALFREGDCWICMELMSTSFDKFYKYVYSSLDEVIPEEILGKITLATVKALNHLKENLKIIHRDIKPSNILLDRKGNIKLCDFGISGQLVDSIAKTRDAGCRPYMAPERIDPSASRQGYDVRSDVWSLGITLYELATGRFPYPKWNSVFDQLTQVVKGDPPQLSSSEERQFSPKFINFVNLCLTKDESKRPKYKELLKHPFIQMYEERTVDVASYVCMILDQMPASPSSPMYVD	binds
Ctenopharyngodon idella MAPK kinase 7 (CiMKK7) (enzyme, UniProt A0A3G2LZC6 1-422) MSSLEQRLSRIEEKLKQENKEARKRIDLNIDMSPQRSRPRPTLQLPLANDGGSRSSSSESSPQHPSYPSRPRQMLTLPTPPYSLQKSLENAEIDQKLQEIMKQTGYLKIDGQRYPAEVTDLISEGEIGSGTCGQVFKVRFKKTGHVIAVKQMRRTGNKDENKRILMDLDVVLKSHDCPYIIQCYGAIVTNTDVFIAMELMGTCAEKLKKRIQGPIPEAILGKMTVAIVKALLYLKEKHGVIHRDVKPSNILLDAKGQIKLCDFGISGRLVDSKAKTRSAGCAAYMAPERIDPPDPSKPDYDIRADVWSLGISLVELATGQFPYKNCKTDFEVLTKVLQEDPPVLPLSMGFSPDFQSFVKDCLTKDHRKRPKYHKLLEHSFIRRYEVSEVDVAGWFQTVMERTESPRSSQCFSHHQLHSLFSR	binds
